Patent EP2545075B1 (NovelMed Therapeutics, Inc., dated 2020)
These are yes or no findings as the source states them, for the method shown. Some binding calls cover weakened binding; strength is not graded here. One block for each binder: values may come before it.

Protein sequences, listed by entry. Tags and fused reporters are not part of them. Residues count along the entry.
UniProt P27918, residues 28-469: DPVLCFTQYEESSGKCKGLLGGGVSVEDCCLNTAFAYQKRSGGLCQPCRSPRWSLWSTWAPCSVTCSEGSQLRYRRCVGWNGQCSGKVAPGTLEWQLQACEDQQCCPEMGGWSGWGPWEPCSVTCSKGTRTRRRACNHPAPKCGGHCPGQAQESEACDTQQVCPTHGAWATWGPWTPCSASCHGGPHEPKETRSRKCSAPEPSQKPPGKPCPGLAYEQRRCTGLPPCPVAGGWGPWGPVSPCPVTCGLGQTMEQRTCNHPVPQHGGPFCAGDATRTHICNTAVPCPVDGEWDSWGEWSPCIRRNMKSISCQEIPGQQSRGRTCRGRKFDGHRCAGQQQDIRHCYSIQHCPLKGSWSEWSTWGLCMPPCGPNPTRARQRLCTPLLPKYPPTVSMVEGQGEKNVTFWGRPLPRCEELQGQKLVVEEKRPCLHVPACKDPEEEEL

Key:
human properdin [1] = target: T1, human properdin (human, UniProt P27918 28-469); assay: ELISA on properdin-coated plates
human properdin [2] = target: T1, human properdin; assay: Properdin binding assay (Fig. 18 legend)
human properdin [3] = target: T1, human properdin; assay: ELISA on properdin-coated plates (Fig. 2)
human properdin [4] = target: T1, human properdin; assay: ELISA on properdin-coated plates (Fig. 2 legend)
human properdin [5] = target: T1, human properdin; assay: Properdin binding assay (Fig. 18)
human properdin [6] = target: T1, human properdin; assay: Binding to the antigen properdin (ELISA)

binding (human properdin [1]): binds
binding (human properdin [2]): binds
binding (human properdin [3]): binds
binding (human properdin [4]): binds
binding (human properdin [5]): binds
B1: NM9401-IgG (antibody, V domains shown)
VH: QVQLQQSAPELARPGASVKMSCTASGYIFTNYPIHWVKQRPGQGLEWIGFIDPGGGYDEPDERFRDRATLTADKSSSTAYMQLSSLTSEDSAIYYCARRGGGYYLDYWGQGTTLTVSS
VL: DIQMTQTTSSLSASLGDRVTISCRASQDISFFLNWYQQKPDGTVKLLIYYTSRYHSGVPSRFSGSGSGTDFSLTINNLEQEDFATYFCQHGNTLPWTFGGGTKLEIK
modifications: Biotinylated in Example 5 (site not stated).

binding (human properdin [1]): binds
binding (human properdin [3]): binds
binding (human properdin [4]): binds
B2: NM9401-Fab (Fab, V domains shown)
VH: B1 VH
VL: B1 VL
notes: Fab fragment of the murine antibody NM9401; also called anti-properdin Fab

binding (human properdin [6]): binds
binding (human properdin [2]): binds
binding (human properdin [5]): binds
B3: BAP010_1 (antibody, IgG1, V domains shown)
VH: B1 VH
VL: B1 VL
notes: Chimeric full-length IgG1/kappa carrying the variable domains of NM9401, expressed in CHO-S cells; also called chimeric anti-properdin monoclonal antibody; recombinant antibody BAP010_1
